± gives the standard deviation of the averaged measurements. This is one part of the list.

The subject of this assay is APPdp1-6 iPSC-derived neurons. Nature of the assay: pThr231Tau/total Tau ratio Z-score vs DMSO vehicle wells; higher = more pThr231Tau relative to total Tau. The conditions noted are these: 5 µM; treatment time 5 days.
Regarding `CC(=O)Nc1ccc(O)cc1` [Prestw-868], the “pThr231Tau/total Tau ratio Z-score” value was determined as 1.25 ± 0.71.
Next, `Cc1ccccc1N1C(=O)c2cc(S(N)(=O)=O)c(Cl)cc2NC1C` (stereo not drawn) [Prestw-112]: 2.69 ± 1.1; `Cc1cc(-n2c(=O)[nH]c(=O)n(C)c2=O)ccc1Oc1ccc(SC(F)(F)F)cc1` [Prestw-1195]: -0.547 ± 0.48; `C=CC1=C(C(=O)O)N2C(=O)[C@@H](NC(=O)/C(=N\OCC(=O)O)c3csc(N)n3)[C@H]2SC1` [Prestw-462]: 1.28 ± 0.42.
The same measure for `OCCOCCN1CCN(C(c2ccccc2)c2ccc(Cl)cc2)CC1` (stereo not drawn): -0.489 ± 0.24; for `OCCOCCN1CCN(C(c2ccccc2)c2ccc(Cl)cc2)CC1` (stereo not drawn) [Prestw-133]: -0.591 ± 0.078; for `C[C@]12CC[C@@H]3c4ccc(O)cc4CC[C@H]3[C@@H]1C[C@@H](O)[C@@H]2O` [Prestw-1096]: 0.062 ± 0.32.
Regarding `CN(C)CCCO[C@@H]1[C@H]2OC(C)(C)O[C@H]2O[C@@H]1[C@H](O)CO` [Prestw-845], the “pThr231Tau/total Tau ratio Z-score” value came to 0.24 ± 1.1.
Regarding `CC[N+](CC)(CC)CCC(O)(c1ccccc1)C1CCCCC1` (stereo not drawn) [Prestw-1042], the “pThr231Tau/total Tau ratio Z-score” value is -1 ± 0.11.
On to `Cc1noc(NS(=O)(=O)c2ccc(N)cc2)c1C` [Prestw-334], for which the “pThr231Tau/total Tau ratio Z-score” value was 0.722 ± 1.4.
For the compound `CCc1cccc2c3c([nH]c12)C(CC)(CC(=O)O)OCC3` (stereo not drawn) [Prestw-231], the “pThr231Tau/total Tau ratio Z-score” value is -0.609 ± 0.46.
Next, `CCCCC(=O)O[C@]1(C(=O)CO)CC[C@H]2[C@@H]3CCC4=CC(=O)CC[C@]4(C)[C@H]3[C@@H](O)C[C@@]21C` [HYDROCORTISONE VALERATE, antiinflammatory, glucocorticoid]: 1.57 ± 1.9.
Next, `CC(Oc1c(Cl)cccc1Cl)C1=NCCN1` (stereo not drawn) [Prestw-1430]: 0.145 ± 0.29; `CC1=C(CC(=O)O)c2cc(F)ccc2/C1=C\c1ccc([S+](C)[O-])cc1` (stereo not drawn) [Prestw-73]: 1.24 ± 0.055; `CN(C)CC/C=C1\c2ccccc2COc2ccccc21` [Prestw-263]: -0.198 ± 1.2.
The same measure for `CO/N=C(\C(=O)N[C@@H]1C(=O)N2C(C(=O)O)=C(C[N+]3(C)CCCC3)CS[C@H]12)c1csc(N)n1` [Prestw-1118]: -0.664 ± 1.1; for `CCOC(=O)[C@H](CCc1ccccc1)N[C@@H](C)C(=O)N1CCC[C@H]1C(=O)O` [Prestw-314]: 2.5 ± 3.5.
For `Cn1nnnc1SCC1=C(C(=O)O)N2C(=O)[C@@H](NC(=O)[C@H](OC=O)c3ccccc3)[C@H]2SC1` [CEFAMANDOLE NAFATE    Therap cat: antimicrobial], the “pThr231Tau/total Tau ratio Z-score” value was 1.83 ± 2.2.
Next, `CO[C@H]1C[C@H](O[C@H]2[C@H](C)[C@@H](O[C@@H]3O[C@H](C)C[C@H](N(C)C)[C@H]3OC(C)=O)[C@@H](C)C[C@@]3(CO3)C(=O)[C@H](C)[C@@H](OC(C)=O)[C@@H](C)[C@@H](C)OC(=O)[C@@H]2C)O[C@@H](C)[C@@H]1OC(C)=O` [Prestw-36]: 0.582 ± 0.1; `COc1ccc(-c2ccc(=N)n(CCCC(=O)O)n2)cc1` [Prestw-443]: 0.747 ± 0.9; `Cc1cc(C(=O)NNCc2ccccc2)no1` [Prestw-795]: 0.585 ± 1.
Next, `O=C(O)C1CSCN1` (stereo not drawn): -0.656 ± 0.88; `NCC1CCC(C(=O)O)CC1` (stereo not drawn) [Prestw-171]: 0.643 ± 0.23.
Next, `CCCCCCCCCCC[C@@H](C[C@@H]1OC(=O)[C@H]1CCCCCC)OC(=O)[C@H](CC(C)C)NC=O` [ORLISTAT, reversible lipase inhibitor, antiobesity]: -0.213 ± 0.082.
For the compound `Cn1c(=O)c2c(ncn2CC(=O)O)n(C)c1=O` [Prestw-1507], the “pThr231Tau/total Tau ratio Z-score” value was -0.36 ± 0.34.
For the compound `O=C1O[C@H](CO)[C@@H](O)[C@H](O)[C@H]1O` [GLUCONOLACTONE    Therap cat: chelating agent], the “pThr231Tau/total Tau ratio Z-score” value is 1.98 ± 1.8.
Next, `CN(C)CC/C=C1\c2ccccc2CSc2ccccc21` [Prestw-488]: 0.388 ± 0.1.
For the compound `CC(=O)NO`, the “pThr231Tau/total Tau ratio Z-score” value is 0.493 ± 1.3.
Next, `CC(C)(Oc1ccc(Cl)cc1)C(=O)O` [Prestw-783]: 0.944 ± 0.41.
For the compound `CN1CCCN=C1COC(=O)C(O)(c1ccccc1)C1CCCCC1` (stereo not drawn), the “pThr231Tau/total Tau ratio Z-score” value was -0.475 ± 0.68.
The same measure for `Oc1ccc(Cl)c2cccnc12` [CLOXYQUIN    Therap cat:  Antibacterial; antifungal]: -0.512 ± 0.38.
Regarding `CC(C)(Sc1cc(C(C)(C)C)c(O)c(C(C)(C)C)c1)Sc1cc(C(C)(C)C)c(O)c(C(C)(C)C)c1` [Prestw-384], the “pThr231Tau/total Tau ratio Z-score” value is 0.0524 ± 0.75.
Next, `CN1CCC(=C2c3ccccc3CC(=O)c3sccc32)CC1` [Prestw-371]: -0.93 ± 0.58; `CN1CCCC(CC2c3ccccc3Sc3ccccc32)C1` (stereo not drawn) [Prestw-491]: -1.65 ± 0.077.
In the case of `COc1ccccc1N1CCN(CC(O)COc2cccc3ccccc23)CC1` (stereo not drawn) [Prestw-975], the “pThr231Tau/total Tau ratio Z-score” value came to 0.171 ± 1.5.
Next, `CCN1C(=O)NC(c2ccccc2)C1=O` (stereo not drawn) [Prestw-696]: 0.93 ± 0.19; `CCCN(CCC)C(=O)C(CCC(=O)O)NC(=O)c1ccccc1` (stereo not drawn) [Prestw-240]: -0.374 ± 1.5; `COc1ccc2c(c1)N(C[C@H](C)CN(C)C)c1ccccc1S2` [Prestw-797]: -0.74 ± 0.8.
Next, `N#CC(c1ccc(Cl)cc1)c1c(Cl)cc(-n2ncc(=O)[nH]c2=O)cc1Cl` (stereo not drawn) [Prestw-1394]: -0.711 ± 0.18; `COc1cc(OC)c(C(=O)CCCN2CCCC2)c(OC)c1` [Prestw-426]: -0.723 ± 0.51; `CN(C)c1ccc(O)c2c1C[C@H]1C[C@H]3[C@H](N(C)C)C(=O)C(C(N)=O)=C(O)[C@@]3(O)C(=O)C1=C2O` [Prestw-315]: -0.598 ± 0.094.
With `CN1CCc2cccc3c2[C@H]1Cc1ccc(O)c(O)c1-3` [Prestw-101], the “pThr231Tau/total Tau ratio Z-score” value was determined as 0.322 ± 0.11.
Next, `CCC(Cc1c(I)cc(I)c(N)c1I)C(=O)O` (stereo not drawn) [Prestw-1052]: 1.84 ± 1.8; `CCC(NC(C)C)C(O)c1ccc(O)c(O)c1` (stereo not drawn) [Prestw-749]: 1.13 ± 0.83; `C[C@]12CC[C@@H]3c4ccc(O)cc4CC[C@H]3[C@@H]1CC[C@@H]2OC(=O)CCC1CCCC1` [ESTRADIOL CYPIONATE    Therap cat:  Estrogen]: 0.192 ± 0.72.
Next, `C[C@@H]1[C@H](O)[C@@H](C)/C=C/C=C/C=C/C=C/C=C/C=C/C=C/[C@H](O[C@@H]2O[C@H](C)[C@@H](O)[C@H](N)[C@@H]2O)C[C@@H]2O[C@](O)(C[C@@H](O)C[C@@H](O)[C@H](O)CC[C@@H](O)C[C@@H](O)CC(=O)O[C@H]1C)C[C@H](O)[C@H]2C(=O)O` [Prestw-410]: 1.77 ± 0.058.
Next, `CO[C@@]1(NC(=O)CSCC#N)C(=O)N2C(C(=O)O)=C(CSc3nnnn3C)CS[C@@H]21` [Prestw-700]: 0.311 ± 0.53; `CCOC(=O)C(C)(C)Oc1ccc(Cl)cc1` [Prestw-1383]: -0.322 ± 0.2; `CC(=O)N(O)CCCCCNC(=O)CCC(=O)N(O)CCCCCNC(=O)CCC(=O)N(O)CCCCCN` [Prestw-725]: 2.51 ± 3.6.
`CCN[C@H]1C[C@H](C)S(=O)(=O)c2sc(S(N)(=O)=O)cc21` [Prestw-1116]: the “pThr231Tau/total Tau ratio Z-score” value is -0.311 ± 0.41.
Next, `O=C1Cc2cc(CCN3CCN(c4nsc5ccccc45)CC3)c(Cl)cc2N1` [Prestw-1188]: 0.0759 ± 2.
Next, `O=c1cc(-c2ccc(O)c(O)c2)oc2cc(O)cc(O)c12` [Prestw-870]: -0.332 ± 0.71.
The same measure for `CC(C)(C(=O)c1cccnc1)c1cccnc1` [Prestw-904]: -2.07 ± 2; for `Cc1cc(=O)n(-c2ccccc2)n1C` [Prestw-29]: 0.251 ± 0.14.
Consider `Clc1ccc(COC(Cn2ccnc2)c2ccc(Cl)cc2Cl)c(Cl)c1` (stereo not drawn) [Prestw-67], for which the “pThr231Tau/total Tau ratio Z-score” value amounted to 0.1 ± 0.83.
For the compound `NC12CC3CC(CC(C3)C1)C2` [Prestw-407], the “pThr231Tau/total Tau ratio Z-score” value turned out to be 0.026 ± 1.6.
Next, `Cc1ccc(-c2ncc(Cl)cc2-c2ccc(S(C)(=O)=O)cc2)cn1` [Prestw-1408]: -0.876 ± 0.48; `CC1CCc2c(N3CCC(O)CC3)c(F)cc3c(=O)c(C(=O)O)cn1c23` (stereo not drawn) [Prestw-1120]: -0.191 ± 0.53; `C[C@@H]1NC(=O)NC1=O` [Prestw-860]: 0.255 ± 0.45.
Next, `CN1CCN(C2=Nc3cc(Cl)ccc3Nc3ccccc32)CC1` [Prestw-350]: -1.72 ± 0.85.
In the case of `COc1cc(C(=O)NS(=O)(=O)c2ccccc2C)ccc1Cc1cn(C)c2ccc(NC(=O)OC3CCCC3)cc12` [Prestw-1364], the “pThr231Tau/total Tau ratio Z-score” value was -0.175 ± 1.1.
As for `Cc1cc(C2CCCCC2)n(O)c(=O)c1` [Prestw-541], the “pThr231Tau/total Tau ratio Z-score” value was -2.16 ± 0.61.
The same measure for `NS(=O)(=O)c1cc(C(=O)O)c(NCc2ccco2)cc1Cl` [Prestw-341]: -0.00641 ± 0.17; for `O=C(O)c1cc(=O)c2ccccc2o1` [CHROMOCARB    Therap cat:  vascular protectant]: 1.33 ± 2.7; for `COc1cc([S+](C)[O-])ccc1-c1nc2ncccc2[nH]1` (stereo not drawn) [Prestw-641]: -0.197 ± 0.78.
Consider `CCOC(=O)[C@H](CCc1ccccc1)N[C@@H](C)C(=O)N1[C@H](C(=O)O)C[C@@H]2CCC[C@@H]21` [Prestw-1107], for which the “pThr231Tau/total Tau ratio Z-score” value is -1.01 ± 1.9.
In the case of `CCOc1ccc2c(c1)C(C)=CC(C)(C)N2` [Prestw-765], the “pThr231Tau/total Tau ratio Z-score” value is -0.857 ± 1.4.
The same measure for `NC(=O)c1ncn([C@@H]2O[C@H](CO)[C@@H](O)[C@H]2O)n1` [Prestw-993]: 0.555.
The same measure for `CC(C)COCC(CN(Cc1ccccc1)c1ccccc1)N1CCCC1` (stereo not drawn) [Prestw-368]: -2.95 ± 1.2; for `CN[C@H](CC(C)C)C(=O)N[C@H]1C(=O)N[C@@H](CC(N)=O)C(=O)N[C@H]2C(=O)N[C@H]3C(=O)N[C@H](C(=O)N[C@H](C(=O)O)c4cc(O)cc(O)c4-c4cc3ccc4O)[C@H](O)c3ccc(c(Cl)c3)Oc3cc2cc(c3O[C@@H]2O[C@H](CO)[C@@H](O)[C@H](O)[C@H]2O[C@H]2C[C@](C)(N)[C@H](O)[C@H](C)O2)Oc2ccc(cc2Cl)[C@H]1O` [Prestw-497]: -0.485 ± 0.56.
The same measure for `CN[C@H](CC(C)C)C(=O)N[C@H]1C(=O)N[C@@H](CC(N)=O)C(=O)N[C@H]2C(=O)N[C@H]3C(=O)N[C@H](C(=O)N[C@H](C(=O)O)c4cc(O)cc(O)c4-c4cc3ccc4O)[C@H](O)c3ccc(c(Cl)c3)Oc3cc2cc(c3O[C@@H]2O[C@H](CO)[C@@H](O)[C@H](O)[C@H]2O[C@H]2C[C@](C)(N)[C@H](O)[C@H](C)O2)Oc2ccc(cc2Cl)[C@H]1O`: 1 ± 1.8; for `CNS(=O)(=O)Cc1ccc2[nH]cc(CCN(C)C)c2c1` [Prestw-1346]: -0.877 ± 1.3.
Turning to `CC[C@H]1OC(=O)[C@H](C)[C@@H](O[C@H]2C[C@@](C)(OC)[C@@H](O)[C@H](C)O2)[C@H](C)[C@@H](O[C@@H]2O[C@H](C)C[C@H](N(C)C)[C@H]2O)[C@](C)(OC)C[C@@H](C)C(=O)[C@H](C)[C@@H](O)[C@]1(C)O` [Prestw-1378], the “pThr231Tau/total Tau ratio Z-score” value is -0.0801 ± 0.82.

The values are drawn from the supplement of paper PMC6414424.
